From publication PMC7049725
No constants are given. Whether binding was seen depends on the method and setting. In cells and extracts the contact can be indirect. A yes stands for co-enrichment or nearness to the bait. Other partners may have been found.

By UniProt entry, the sequences of proteins in these tests, tags left out.
UniProt O60293: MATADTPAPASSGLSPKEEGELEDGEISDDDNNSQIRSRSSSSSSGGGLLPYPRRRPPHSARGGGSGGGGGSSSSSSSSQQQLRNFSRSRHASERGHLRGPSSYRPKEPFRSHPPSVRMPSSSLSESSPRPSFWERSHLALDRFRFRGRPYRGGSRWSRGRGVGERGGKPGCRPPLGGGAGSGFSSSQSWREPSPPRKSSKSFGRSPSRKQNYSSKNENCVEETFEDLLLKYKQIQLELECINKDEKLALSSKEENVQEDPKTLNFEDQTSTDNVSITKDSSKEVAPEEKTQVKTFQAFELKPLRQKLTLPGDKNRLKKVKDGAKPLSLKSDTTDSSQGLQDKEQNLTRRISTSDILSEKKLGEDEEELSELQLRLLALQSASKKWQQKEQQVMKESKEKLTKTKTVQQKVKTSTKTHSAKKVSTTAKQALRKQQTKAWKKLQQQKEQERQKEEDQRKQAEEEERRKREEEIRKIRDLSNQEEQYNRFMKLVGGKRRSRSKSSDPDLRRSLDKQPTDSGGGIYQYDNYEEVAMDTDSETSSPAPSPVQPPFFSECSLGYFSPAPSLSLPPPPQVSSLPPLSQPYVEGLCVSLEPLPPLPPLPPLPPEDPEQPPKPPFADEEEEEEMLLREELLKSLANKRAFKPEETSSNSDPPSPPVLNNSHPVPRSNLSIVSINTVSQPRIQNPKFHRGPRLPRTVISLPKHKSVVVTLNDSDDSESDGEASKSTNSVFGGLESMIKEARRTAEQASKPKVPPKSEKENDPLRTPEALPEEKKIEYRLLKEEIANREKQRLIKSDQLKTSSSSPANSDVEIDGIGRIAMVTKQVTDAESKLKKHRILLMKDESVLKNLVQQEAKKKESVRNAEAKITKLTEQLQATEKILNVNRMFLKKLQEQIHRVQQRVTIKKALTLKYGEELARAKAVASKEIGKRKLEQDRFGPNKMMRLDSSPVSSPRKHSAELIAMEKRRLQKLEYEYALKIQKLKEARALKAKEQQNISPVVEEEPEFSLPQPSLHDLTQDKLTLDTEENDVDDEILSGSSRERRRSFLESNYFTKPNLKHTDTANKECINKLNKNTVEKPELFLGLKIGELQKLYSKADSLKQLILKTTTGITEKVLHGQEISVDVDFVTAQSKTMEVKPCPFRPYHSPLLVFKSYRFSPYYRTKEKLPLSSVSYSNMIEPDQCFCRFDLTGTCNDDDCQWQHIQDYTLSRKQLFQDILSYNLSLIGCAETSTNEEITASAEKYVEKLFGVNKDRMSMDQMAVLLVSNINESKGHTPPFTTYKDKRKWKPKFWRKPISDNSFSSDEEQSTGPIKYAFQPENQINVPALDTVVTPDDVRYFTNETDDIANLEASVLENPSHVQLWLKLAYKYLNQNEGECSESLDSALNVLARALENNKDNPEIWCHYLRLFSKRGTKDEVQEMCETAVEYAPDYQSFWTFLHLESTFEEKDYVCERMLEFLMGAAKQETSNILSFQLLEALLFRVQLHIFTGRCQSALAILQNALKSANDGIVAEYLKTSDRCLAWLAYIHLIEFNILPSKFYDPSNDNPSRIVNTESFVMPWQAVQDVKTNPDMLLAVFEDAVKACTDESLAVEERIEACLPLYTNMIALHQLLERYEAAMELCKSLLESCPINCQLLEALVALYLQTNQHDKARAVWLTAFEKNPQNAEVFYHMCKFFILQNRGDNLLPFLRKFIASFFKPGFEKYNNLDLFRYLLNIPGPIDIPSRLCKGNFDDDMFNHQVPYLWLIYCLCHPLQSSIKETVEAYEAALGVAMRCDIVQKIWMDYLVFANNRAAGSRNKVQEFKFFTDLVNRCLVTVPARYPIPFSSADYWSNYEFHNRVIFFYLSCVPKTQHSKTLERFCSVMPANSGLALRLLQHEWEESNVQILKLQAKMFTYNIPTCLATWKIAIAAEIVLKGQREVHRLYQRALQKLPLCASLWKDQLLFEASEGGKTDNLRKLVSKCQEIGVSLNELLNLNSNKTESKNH
UniProt Q6NZY4: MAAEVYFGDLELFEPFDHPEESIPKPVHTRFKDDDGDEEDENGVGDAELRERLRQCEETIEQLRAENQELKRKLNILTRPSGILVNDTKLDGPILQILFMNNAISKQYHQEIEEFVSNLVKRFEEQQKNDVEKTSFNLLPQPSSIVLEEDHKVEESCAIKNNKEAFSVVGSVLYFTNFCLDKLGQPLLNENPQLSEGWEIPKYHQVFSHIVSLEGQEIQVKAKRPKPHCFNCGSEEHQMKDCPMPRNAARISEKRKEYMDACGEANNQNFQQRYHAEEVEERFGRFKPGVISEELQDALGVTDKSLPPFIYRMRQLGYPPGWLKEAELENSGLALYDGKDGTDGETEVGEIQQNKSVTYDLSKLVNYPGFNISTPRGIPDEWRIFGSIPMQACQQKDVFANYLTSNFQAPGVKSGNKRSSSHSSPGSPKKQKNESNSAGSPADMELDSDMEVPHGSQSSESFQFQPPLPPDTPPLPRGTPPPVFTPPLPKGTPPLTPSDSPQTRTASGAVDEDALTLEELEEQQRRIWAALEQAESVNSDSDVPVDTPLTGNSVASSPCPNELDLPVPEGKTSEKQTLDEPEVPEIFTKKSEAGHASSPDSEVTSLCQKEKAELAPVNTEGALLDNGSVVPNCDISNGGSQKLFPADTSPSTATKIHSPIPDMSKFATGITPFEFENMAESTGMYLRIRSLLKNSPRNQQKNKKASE

Assays:
[1] = target: MTR4-LAP (human) (UniProt P42285); test: affinity purification with mass spectrometry; MTR4-LAP captured with anti-GFP llama polyclonal antibodies on Dynabeads from HeLa Kyoto extract (20 mM HEPES-KOH pH 7.4, 0.5% Triton X-100, 150 mM NaCl), 4°C 30 min; label-free, triplicates, against a LAP-only control; cells treated with siLUC (control) or siZCCHC8
[2] = target: T1, MTR4-LAP (human), P42285; test: as above; settings: remark: other sources report otherwise
T1 chain: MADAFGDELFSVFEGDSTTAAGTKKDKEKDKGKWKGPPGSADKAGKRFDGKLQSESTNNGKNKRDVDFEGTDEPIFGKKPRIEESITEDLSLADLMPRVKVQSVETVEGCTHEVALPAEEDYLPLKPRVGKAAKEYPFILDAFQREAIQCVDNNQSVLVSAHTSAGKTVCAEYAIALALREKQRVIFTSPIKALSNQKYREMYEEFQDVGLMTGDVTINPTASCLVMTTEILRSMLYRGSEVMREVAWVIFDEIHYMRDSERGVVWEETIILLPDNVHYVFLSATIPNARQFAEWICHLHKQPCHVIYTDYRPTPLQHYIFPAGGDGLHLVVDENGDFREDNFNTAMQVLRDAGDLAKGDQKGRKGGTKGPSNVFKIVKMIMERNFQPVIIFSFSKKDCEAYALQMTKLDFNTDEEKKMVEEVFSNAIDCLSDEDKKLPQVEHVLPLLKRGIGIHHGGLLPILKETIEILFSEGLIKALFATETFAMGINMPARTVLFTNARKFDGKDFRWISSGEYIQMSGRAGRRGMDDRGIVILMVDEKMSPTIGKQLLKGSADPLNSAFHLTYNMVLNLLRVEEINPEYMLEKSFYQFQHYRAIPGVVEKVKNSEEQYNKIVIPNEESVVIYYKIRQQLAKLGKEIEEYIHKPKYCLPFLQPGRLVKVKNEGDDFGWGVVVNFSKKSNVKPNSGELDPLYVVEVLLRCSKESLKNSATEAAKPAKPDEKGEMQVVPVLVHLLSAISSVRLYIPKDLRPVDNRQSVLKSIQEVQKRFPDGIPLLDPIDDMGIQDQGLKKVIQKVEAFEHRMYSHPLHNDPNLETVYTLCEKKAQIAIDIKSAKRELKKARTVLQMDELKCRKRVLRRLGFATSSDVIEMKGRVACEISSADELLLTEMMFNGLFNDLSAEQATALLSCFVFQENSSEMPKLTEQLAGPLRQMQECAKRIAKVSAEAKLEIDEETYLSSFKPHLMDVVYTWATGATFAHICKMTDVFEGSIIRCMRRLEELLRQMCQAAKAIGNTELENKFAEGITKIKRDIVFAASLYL

In the case of ZFC3H1 (from UniProt O60293 1-1989), the binding [1] is reported as “binds”.

ZCCHC8 (from UniProt Q6NZY4 1-707) was tested, and the binding [1] was “binds”.

B1: PABPN1, Q86U42 1-306 (protein)
chain: MAAAAAAAAAAGAAGGRGSGPGRRRHLVPGAGGEAGEGAPGGAGDYGNGLESEELEPEELLLEPEPEPEPEEEPPRPRAPPGAPGPGPGSGAPGSQEEEEEPGLVEGDPGDGAIEDPELEAIKARVREMEEEAEKLKELQNEVEKQMNMSPPPGNAGPVIMSIEEKMEADARSIYVGNVDYGATAEELEAHFHGCGSVNRVTILCDKFSGHPKGFAYIEFSDKESVRTSLALDESLFRGRQIKVIPKRTNRPGISTTDRGFPRARYRARTTNYNSSRSRFYSGFNSRPRGRVYRGRARATSWYSPY
B1 was tested, and the binding [2] was “binds”.

B2: ZC3H3 (protein, UniProt Q8IXZ2 1-948)
chain: MEEKEILRRQIRLLQGLIDDYKTLHGNAPAPGTPAASGWQPPTYHSGRAFSARYPRPSRRGYSSHHGPSWRKKYSLVNRPPGPSDPPADHAVRPLHGARGGQPPVPQQHVLERQVQLSQGQNVVIKVKPPSKSGSASASGAQRGSLEEFEETPWSDQRPREGEGEPPRGQLQPSRPTRARGTCSVEDPLLVCQKEPGKPRMVKSVGSVGDSPREPRRTVSESVIAVKASFPSSALPPRTGVALGRKLGSHSVASCAPQLLGDRRVDAGHTDQPVPSGSVGGPARPASGPRQAREASLVVTCRTNKFRKNNYKWVAASSKSPRVARRALSPRVAAENVCKASAGMANKVEKPQLIADPEPKPRKPATSSKPGSAPSKYKWKASSPSASSSSSFRWQSEASSKDHASQLSPVLSRSPSGDRPAVGHSGLKPLSGETPLSAYKVKSRTKIIRRRSSTSLPGDKKSGTSPAATAKSHLSLRRRQALRGKSSPVLKKTPNKGLVQVTTHRLCRLPPSRAHLPTKEASSLHAVRTAPTSKVIKTRYRIVKKTPASPLSAPPFPLSLPSWRARRLSLSRSLVLNRLRPVASGGGKAQPGSPWWRSKGYRCIGGVLYKVSANKLSKTSGQPSDAGSRPLLRTGRLDPAGSCSRSLASRAVQRSLAIIRQARQRREKRKEYCMYYNRFGRCNRGERCPYIHDPEKVAVCTRFVRGTCKKTDGTCPFSHHVSKEKMPVCSYFLKGICSNSNCPYSHVYVSRKAEVCSDFLKGYCPLGAKCKKKHTLLCPDFARRGACPRGAQCQLLHRTQKRHSRRAATSPAPGPSDATARSRVSASHGPRKPSASQRPTRQTPSSAALTAAAVAAPPHCPGGSASPSSSKASSSSSSSSSPPASLDHEAPSLQEAALAAACSNRLCKLPSFISLQSSPSPGAQPRVRAPRAPLTKDSGKPLHIKPRL
With B2 the binding [1] was “binds”.

B3: RBM27 (protein, UniProt Q9P2N5 1-1060)
chain: MLIEDVDALKSWLAKLLEPICDADPSALANYVVALVKKDKPEKELKAFCADQLDVFLQKETSGFVDKLFESLYTKNYLPLLEPVKPEPKPLVQEKEEIKEEVFQEPAEEERDGRKKKYPSPQKTRSESSERRTREKKREDGKWRDYDRYYERNELYREKYDWRRGRSKSRSKSRGLSRSRSRSRGRSKDRDPNRNVEHRERSKFKSERNDLESSYVPVSAPPPNSSEQYSSGAQSIPSTVTVIAPAHHSENTTESWSNYYNNHSSSNSFGRNLPPKRRCRDYDERGFCVLGDLCQFDHGNDPLVVDEVALPSMIPFPPPPPGLPPPPPPGMLMPPMPGPGPGPGPGPGPGPGPGPGPGHSMRLPVPQGHGQPPPSVVLPIPRPPITQSSLINSRDQPGTSAVPNLASVGTRLPPPLPQNLLYTVSERQPMYSREHGAAASERLQLGTPPPLLAARLVPPRNLMGSSIGYHTSVSSPTPLVPDTYEPDGYNPEAPSITSSGRSQYRQFFSRTQTQRPNLIGLTSGDMDVNPRAANIVIQTEPPVPVSINSNITRVVLEPDSRKRAMSGLEGPLTKKPWLGKQGNNNQNKPGFLRKNQYTNTKLEVKKIPQELNNITKLNEHFSKFGTIVNIQVAFKGDPEAALIQYLTNEEARKAISSTEAVLNNRFIRVLWHRENNEQPTLQSSAQLLLQQQQTLSHLSQQHHHLPQHLHQQQVLVAQSAPSTVHGGIQKMMSKPQTSGAYVLNKVPVKHRLGHAGGNQSDASHLLNQSGGAGEDCQIFSTPGHPKMIYSSSNLKTPSKLCSGSKSHDVQEVLKKKQEAMKLQQDMRKKRQEVLEKQIECQKMLISKLEKNKNMKPEERANIMKTLKELGEKISQLKDELKTSSAVSTPSKVKTKTEAQKELLDTELDLHKRLSSGEDTTELRKKLSQLQVEAARLGILPVGRGKTMSSQGRGRGRGRGGRGRGSLNHMVVDHRPKALTVGGFIEEEKEDLLQHFSTANQGPKFKDRRLQISWHKPKVPSISTETEEEEVKEEETETSDLFLPDDDDEDEDEYESRSWRR
For B3, the binding [1] was “binds”.
